No constants are given. Whether binding was seen depends on the method and setting. In cells and extracts the contact can be indirect. A yes stands for co-enrichment or nearness to the bait. Other partners may have been found.

By UniProt entry, the sequences of proteins in these tests, tags left out.
UniProt O75335: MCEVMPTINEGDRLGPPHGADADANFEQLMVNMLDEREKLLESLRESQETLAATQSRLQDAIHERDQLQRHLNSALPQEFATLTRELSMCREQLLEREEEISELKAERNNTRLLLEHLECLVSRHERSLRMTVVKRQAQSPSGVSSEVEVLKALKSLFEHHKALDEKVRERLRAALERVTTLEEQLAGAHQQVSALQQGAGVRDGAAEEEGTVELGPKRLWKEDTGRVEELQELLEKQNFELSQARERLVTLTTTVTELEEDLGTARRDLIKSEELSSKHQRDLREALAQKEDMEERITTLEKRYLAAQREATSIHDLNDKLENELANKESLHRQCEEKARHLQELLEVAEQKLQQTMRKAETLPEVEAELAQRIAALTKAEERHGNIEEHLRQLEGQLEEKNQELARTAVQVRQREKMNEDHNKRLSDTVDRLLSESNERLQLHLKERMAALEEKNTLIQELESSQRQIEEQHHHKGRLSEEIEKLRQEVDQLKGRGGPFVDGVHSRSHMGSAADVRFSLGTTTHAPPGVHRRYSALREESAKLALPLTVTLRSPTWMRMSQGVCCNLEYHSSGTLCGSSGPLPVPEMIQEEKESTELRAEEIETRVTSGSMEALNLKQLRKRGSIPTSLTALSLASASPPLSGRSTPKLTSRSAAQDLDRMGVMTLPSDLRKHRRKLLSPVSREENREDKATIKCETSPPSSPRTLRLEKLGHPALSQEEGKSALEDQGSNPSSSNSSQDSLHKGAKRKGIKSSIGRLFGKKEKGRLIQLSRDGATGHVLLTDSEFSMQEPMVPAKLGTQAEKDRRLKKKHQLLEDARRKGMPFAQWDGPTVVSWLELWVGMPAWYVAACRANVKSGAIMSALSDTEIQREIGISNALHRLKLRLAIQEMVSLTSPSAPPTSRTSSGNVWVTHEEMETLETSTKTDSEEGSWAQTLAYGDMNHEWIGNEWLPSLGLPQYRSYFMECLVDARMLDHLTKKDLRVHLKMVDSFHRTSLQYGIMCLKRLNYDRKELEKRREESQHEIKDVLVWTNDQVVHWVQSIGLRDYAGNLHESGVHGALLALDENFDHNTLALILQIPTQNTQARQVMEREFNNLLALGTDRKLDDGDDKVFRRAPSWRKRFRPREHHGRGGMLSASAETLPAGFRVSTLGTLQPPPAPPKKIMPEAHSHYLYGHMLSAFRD

For this assay, the target named is protein tyrosine phosphatase receptor type F polypeptide interacting protein alpha 4 (PPFIA4) (human (endogenous in C4-2B and LNCaP)) (UniProt O75335). Put plainly: affinity purification with mass spectrometry; C4-2B cell lysates immunoprecipitated with PPFIA4 antibody, SDS-PAGE, Coomassie blue staining, bands cut, LC-MS/MS.

B1: methylenetetrahydrofolate dehydrogenase 2 (MTHFD2) (enzyme, UniProt P13995 36-350)
chain: EAVVISGRKLAQQIKQEVRQEVEEWVASGNKRPHLSVILVGENPASHSYVLNKTRAAAVVGINSETIMKPASISEEELLNLINKLNNDDNVDGLLVQLPLPEHIDERRICNAVSPDKDVDGFHVINVGRMCLDQYSMLPATPWGVWEIIKRTGIPTLGKNVVVAGRSKNVGMPIAMLLHTDGAHERPGGDATVTISHRYTPKEQLKKHTILADIVISAAGIPNLITADMIKEGAAVIDVGINRVHDPVTAKPKLVGDVDFEGVRQKAGYITPVPGGVGPMTVAMLMKNTIIAAKKVLRLEEREVLKSKELGVATN
On to B1, for which the binding entry is listed as “binds”.

Source of the values: paper PMC8985307.
